# Among all 360,000 compounds or so, about 7,500 (2.1%) were called active. Inconclusive results, whose numbers are uncertain, are shown with a selection of clear calls. Calls come from the whole dose curve; as a rule, active = well fitted inhibition curve with a large enough effect; inconclusive = small, poorly fitted or top-dose-only effect, or effect the other way; inactive = flat fitted curve, though single readings scatter. Potencies of inconclusive entries are doubtful fits and often do not repeat.
# Test: Nrf2 qHTS screen for inhibitors; note: nearly all actives have a fitted effect of over 60% in size
# Settings: A549 ARE-Fluc reporter, luciferase luminescence, 18-24 h; activity change, negative = inhibition: at 46 µM (top of the series)
# Procedure, shortened: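 In this cell-based qHTS, ARE-driven firefly luciferase in A549 cells reports Nrf2 activity; the luminescent signal after BugLite lysis is the measured value, with a prior CellTiter-Fluor read for cell health.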
# % is set by controls: 0 for no effect and ±100 for the full control effect; potency is the fitted concentration of half-maximal effect.
Compound,Potency,"activity change, negative = inhibition"
C#CCn1c(=NC(=O)c2cccs2)sc2cccc(OC)c21,"inconclusive: 1.84 µM [activator, partial curve]",–
Cc1cccc(Nc2nc(NCCO)nc(N3CCCC3)n2)c1,–,inactive: -11.3%
CC(=O)c1c(C)[nH]c(C(=O)Nc2ccccc2Cl)c1C,"inconclusive: 25.9 µM [activator, partial curve]",–
O=C(CCc1ccccc1Cl)Nc1ccc(S(=O)(=O)N2CCOCC2)cc1,"inconclusive: 18.4 µM [falling, partial curve, poor fit]",–
COc1ccc(-c2nc3ccccc3o2)cc1NC(=O)COc1ccc(C(C)(C)C)cc1,"inconclusive: 2.91 µM [activator, single point]",–
O=C(Cc1ccccn1)c1ccc(Cl)cc1,"inconclusive: 23.1 µM [activator, single point]",–
Cc1ccsc1/C=N/Nc1nc(Cl)c(Cl)cc1Cl,"inconclusive: 3.66 µM [activator, full curve]",–
Cc1cc(C(=O)N/N=C/c2cc(Br)ccc2OC(=O)c2ccccc2Cl)n[nH]1,"inconclusive: 29.1 µM [falling, single point]",–
CCCCOC(=O)c1cccc(NC(=O)c2cc3ccccc3o2)c1,"inconclusive: 0.291 µM [activator, full curve]",–
CN(CC(=O)Nc1ccc(Cl)c(C(F)(F)F)c1)C(=O)CCCNC(=O)c1ccc(Cl)cc1,"inconclusive: 29.1 µM [falling, single point]",–
CN(C)CCCNC1=CC(=O)OC12CCCCC2,"inconclusive: 2.91 µM [activator, full curve, poor fit]",–
CCCC(=O)Nc1nnc(SCC(=O)N2CCN(c3ccccc3)CC2)s1,"inconclusive: 14.6 µM [falling, partial curve]",–
COc1cccc(CNCCSc2nnnn2C)c1OCc1ccccc1F,"inconclusive: 7.31 µM [falling, partial curve, poor fit]",–
CCc1ccc(NC(=O)CSc2nc3n[nH]c(C)c3c(=N)n2-c2cccc(OC)c2)cc1,"inconclusive: 29.1 µM [falling, single point]",–
O=[N+]([O-])c1cc([N+](=O)[O-])c(Oc2c(F)cc(F)cc2F)cc1NN1CCCCC1,–,inactive: -11.4%
CN(Cc1ccccc1)c1ccc(C(CC(N)=O)NC(=O)c2ccccc2)cc1[N+](=O)[O-] (centres undefined),active: 10.3 µM,–
CCOc1ccc(NC(=O)C2CCN(c3nnnn3-c3ccccc3)CC2)cc1,"inconclusive: 32.6 µM [falling, partial curve, poor fit]",–
CC(C)C[C@@H](CNCC(=O)[C@H](CC(C)C)NC(=O)c1[nH]cnc1C(=O)N[C@H](CN)CC(C)C)NC(=O)c1nc[nH]c1C(=O)N[C@@H](CC(=O)O)C(=O)O,–,inactive: -1.11%
O=C(NCCc1ccccc1)c1ccc(CSc2nc3ccncc3n2Cc2ccc(F)cc2)cc1,"inconclusive: 16.4 µM [falling, single point]",–
O=C(O)C1CC(=O)N(c2ccc(Br)cc2)C1 (centres undefined),"inconclusive: 29.1 µM [activator, partial curve, poor fit]",–
O=C(CN1C(=O)COc2ccc(S(=O)(=O)N3CCOCC3)cc21)N1CCN(c2ccc(F)cc2)CC1,–,inactive: -6.49%
Cc1ccccc1OCC(=O)Nc1ccc(N2CCN(C(=O)C(C)C)CC2)c(Cl)c1,"inconclusive: 20.6 µM [falling, partial curve, poor fit]",–

Compound,Potency,"activity change, negative = inhibition"
CCOC(=O)C1CCN(c2ncnc3c2c(-c2ccccc2)cn3-c2ccccc2)CC1,"inconclusive: 13 µM [falling, partial curve, poor fit]",–
CCCN(C(=O)c1ccco1)c1nnc(-c2ccccc2C)s1,–,inactive: 10.7%
CCOc1ccc(-c2ccc(SCc3ccccn3)nn2)cc1,"inconclusive: 5.17 µM [activator, full curve, poor fit]",–
S=C(NCc1ccc(Cl)cc1)NC1CCCCC1,"inconclusive: 29.1 µM [falling, single point]",–
CC12CCC(=O)N1C(C(=O)Nc1cccc(S(=O)(=O)N3CCCCCC3)c1)CS2 (centres undefined),"inconclusive: 32.6 µM [falling, partial curve, poor fit]",–
CCC(=O)N(C1=C(NC)C(=O)c2ccccc2C1=O)C(C)C,active: 16.4 µM,–
Cc1cccc(NC(=O)c2nc[nH]c2C(=O)N[C@@H](Cc2ccccc2)C(=O)OC(C)(C)C)c1,"inconclusive: 29.1 µM [falling, single point]",–
NC(=O)C1CCN(C(=O)CN2C(=O)c3ccccc3S2(=O)=O)CC1,–,inactive: 16.6%
COc1cc(OC)c(OC)cc1/C=N/N(C)c1ccccc1,"inconclusive: 16.4 µM [falling, single point]",–
Cn1cc(-c2ccccc2C(N)=O)c(=O)c2cc(Cl)ccc21,"inconclusive: 16.4 µM [activator, single point]",–
CCc1cccc(NC(=O)Cn2nc(-c3cc(C)ccc3C)ccc2=O)c1,"inconclusive: 29.1 µM [falling, single point]",–
CCCCSCCCNC(=O)Nc1ccc(C)c(C)c1,"inconclusive: 4.11 µM [falling, full curve, poor fit]",–
Cc1ccc(CN2C(=O)C3(c4ccccc42)N(c2cccc(C(F)(F)F)c2)C(=O)CS3(=O)=O)cc1 (centres undefined),"inconclusive: 32.6 µM [falling, single point]",–
Cc1ccc(NC(=O)CN2CCCCCC2)cc1[N+](=O)[O-],"inconclusive: 18.4 µM [activator, partial curve]",–
COc1ccc(NS(=O)(=O)c2ccc(NC(=S)NC(=O)c3cccnc3)cc2)nn1,"inconclusive: 13 µM [falling, partial curve, poor fit]",–
COc1cccc(C(=O)N/N=C/C(Br)=C/c2ccccc2)c1,–,inactive: 11.9%
Cc1cc(C)c(S(=O)(=O)NCCc2ccncc2)c(C)c1,–,inactive: -28.2%
O=C(Nc1ccn(Cc2c(F)c(F)c(F)c(F)c2F)n1)c1cccc(Cn2cc([N+](=O)[O-])cn2)c1,active: 18.4 µM,–
COc1cccc(-c2csc(N3CCN(C(=S)Nc4ccc(Cl)cc4)CC3)n2)c1,active: 20.6 µM,–
CCOC(=O)c1sc(SCc2ccccc2)c2c1CC(C)(C)CC2=O,"inconclusive: 29.1 µM [falling, single point]",–
O=C(NCCSc1ccccc1)c1ccccc1,"inconclusive: 2.91 µM [activator, partial curve]",–
Cn1c(=O)c(NCCc2ccccc2)c2c3c(cccc31)C(=O)c1ccccc1-2,"inconclusive: 29.1 µM [falling, single point]",–

# A run of entries from further up, for reference:
Compound,Potency,"activity change, negative = inhibition"
NC(=O)C1CCN(C(=O)CN2C(=O)c3ccccc3S2(=O)=O)CC1,–,inactive: 16.6%
COc1cc(OC)c(OC)cc1/C=N/N(C)c1ccccc1,"inconclusive: 16.4 µM [falling, single point]",–
Cn1cc(-c2ccccc2C(N)=O)c(=O)c2cc(Cl)ccc21,"inconclusive: 16.4 µM [activator, single point]",–
CCc1cccc(NC(=O)Cn2nc(-c3cc(C)ccc3C)ccc2=O)c1,"inconclusive: 29.1 µM [falling, single point]",–
CCCCSCCCNC(=O)Nc1ccc(C)c(C)c1,"inconclusive: 4.11 µM [falling, full curve, poor fit]",–
Cc1ccc(CN2C(=O)C3(c4ccccc42)N(c2cccc(C(F)(F)F)c2)C(=O)CS3(=O)=O)cc1 (centres undefined),"inconclusive: 32.6 µM [falling, single point]",–
Cc1ccc(NC(=O)CN2CCCCCC2)cc1[N+](=O)[O-],"inconclusive: 18.4 µM [activator, partial curve]",–
COc1ccc(NS(=O)(=O)c2ccc(NC(=S)NC(=O)c3cccnc3)cc2)nn1,"inconclusive: 13 µM [falling, partial curve, poor fit]",–
COc1cccc(C(=O)N/N=C/C(Br)=C/c2ccccc2)c1,–,inactive: 11.9%
Cc1cc(C)c(S(=O)(=O)NCCc2ccncc2)c(C)c1,–,inactive: -28.2%
O=C(Nc1ccn(Cc2c(F)c(F)c(F)c(F)c2F)n1)c1cccc(Cn2cc([N+](=O)[O-])cn2)c1,active: 18.4 µM,–
COc1cccc(-c2csc(N3CCN(C(=S)Nc4ccc(Cl)cc4)CC3)n2)c1,active: 20.6 µM,–
CCOC(=O)c1sc(SCc2ccccc2)c2c1CC(C)(C)CC2=O,"inconclusive: 29.1 µM [falling, single point]",–
O=C(NCCSc1ccccc1)c1ccccc1,"inconclusive: 2.91 µM [activator, partial curve]",–

# (continued)

Compound,Potency,"activity change, negative = inhibition"
COCc1nn2c(=O)cc(N3CCNCC3)nc2s1,–,inactive: 5.11%
CC(C)(C)c1ccc(C(=O)O[C@H]2[C@H](Cc3ccccc3)NS(=O)(=O)[C@H]3C[C@@H]4C=C[C@]23O4)cc1,"inconclusive: 32.6 µM [falling, single point]",–
CN(C)CCCNC(=O)C[C@H]1C[C@H](C(=O)N2CCOCC2)[C@@]2(CCC3CCCC3)c3[nH]c4cc(CCC(=O)N(C)C)ccc4c3CCN2C1=O,–,inactive: 9.58%
O=C(CSc1nnc(-c2ccccc2)n1Cc1ccco1)Nc1ccc(S(=O)(=O)N2CCCC2)cc1,active: 16.4 µM,–
COc1cccc(-c2nc(-c3ccc4c(c3)NC(=O)CO4)cs2)c1,"inconclusive: 4.11 µM [activator, full curve]",–
CCOc1ccc(C(NC(=O)c2ccco2)c2ccc(OC)c(OC)c2)cc1 (centres undefined),"inconclusive: 10.3 µM [falling, partial curve, poor fit]",–
COc1cccc(NC(=O)CN2CCSc3ccccc32)c1,"inconclusive: 20.6 µM [falling, partial curve, poor fit]",–
CC(=O)N1c2c(cc(Br)cc2S(=O)(=O)N2CCN(c3cccc(Cl)c3)CC2)CC1C (centres undefined),–,inactive: -12.7% [at 9.27 µM]
COc1cccc(N2CCN(C(=O)c3cnn(-c4ccc(C)cc4C)c3C3CCN(C(=O)OC(C)(C)C)CC3)CC2)c1,"inconclusive: 25.9 µM [falling, single point]",–
CC(NC(=O)COc1cccc(Br)c1)C(=O)O (centres undefined),–,inactive: -12.2%
CCOC(=O)C1(Cc2ccccc2)CCCN(Cc2cccc(C(C)=O)c2)C1 (centres undefined),"inconclusive: 20.6 µM [falling, partial curve, poor fit]",–
O=C(CSc1nc2ccccc2s1)NCc1cc([N+](=O)[O-])ccc1O,"inconclusive: 13 µM [activator, partial curve]",–
CCN(Cc1ccccc1)C(=O)c1cc2c(s1)-c1c(C)cccc1OC2,–,inactive: -10.5%
Cc1ccc(Cl)cc1NC(=O)Cn1c(=O)n(Cc2ccc(C(=O)NCc3ccc4c(c3)OCO4)cc2)c(=O)c2ccccc21,–,inactive: -11.6%
O=C1/C(=N\S(=O)(=O)c2cccs2)C([n+]2cccc(Cc3ccccc3)c2)=C([O-])c2ccccc21,"inconclusive: 20.6 µM [falling, single point]",–
c1ccc(-c2nnc(CSc3nncs3)o2)cc1,"inconclusive: 7.31 µM [activator, partial curve]",–
Cc1ccc(-c2nc(CS(=O)(=O)CC(=O)NC3CCCCCC3)c(C)o2)cc1,"inconclusive: 32.6 µM [falling, single point]",–
CCOC(=O)C1CCCN(C(=O)c2ccc(-n3ccc4ccccc43)s2)C1 (centres undefined),"inconclusive: 16.4 µM [activator, single point]",–
C=C1C(=O)[C@@]23[C@H](O)C[C@@H]4C(C)(C)CC[C@H](O)[C@@]4(C)[C@@H]2CC[C@@H]1[C@H]3O,active: 18.4 µM,–
CN(Cc1nc(-c2ccccc2)no1)C(=O)c1ccco1,"inconclusive: 11.6 µM [activator, partial curve]",–

# From PubChem BioAssay AID504444 (National Center for Advancing Translational Sciences (NCATS), 2011)
